Results are given in words; binding and its absence hold for the method and conditions named. In cells and extracts the contact can be indirect. Here binding means that the protein was enriched with, or labelled near, the bait; the list need not be complete. Sequences can lack the tags named with a protein.

The labels stand for the following.
T1: GFP-AGO1 (ARGONAUTE1 fused to GFP, line pAGO1:GFP-AGO1 ago1-27) (Arabidopsis thaliana) (UniProt O04379)
T1 sequence: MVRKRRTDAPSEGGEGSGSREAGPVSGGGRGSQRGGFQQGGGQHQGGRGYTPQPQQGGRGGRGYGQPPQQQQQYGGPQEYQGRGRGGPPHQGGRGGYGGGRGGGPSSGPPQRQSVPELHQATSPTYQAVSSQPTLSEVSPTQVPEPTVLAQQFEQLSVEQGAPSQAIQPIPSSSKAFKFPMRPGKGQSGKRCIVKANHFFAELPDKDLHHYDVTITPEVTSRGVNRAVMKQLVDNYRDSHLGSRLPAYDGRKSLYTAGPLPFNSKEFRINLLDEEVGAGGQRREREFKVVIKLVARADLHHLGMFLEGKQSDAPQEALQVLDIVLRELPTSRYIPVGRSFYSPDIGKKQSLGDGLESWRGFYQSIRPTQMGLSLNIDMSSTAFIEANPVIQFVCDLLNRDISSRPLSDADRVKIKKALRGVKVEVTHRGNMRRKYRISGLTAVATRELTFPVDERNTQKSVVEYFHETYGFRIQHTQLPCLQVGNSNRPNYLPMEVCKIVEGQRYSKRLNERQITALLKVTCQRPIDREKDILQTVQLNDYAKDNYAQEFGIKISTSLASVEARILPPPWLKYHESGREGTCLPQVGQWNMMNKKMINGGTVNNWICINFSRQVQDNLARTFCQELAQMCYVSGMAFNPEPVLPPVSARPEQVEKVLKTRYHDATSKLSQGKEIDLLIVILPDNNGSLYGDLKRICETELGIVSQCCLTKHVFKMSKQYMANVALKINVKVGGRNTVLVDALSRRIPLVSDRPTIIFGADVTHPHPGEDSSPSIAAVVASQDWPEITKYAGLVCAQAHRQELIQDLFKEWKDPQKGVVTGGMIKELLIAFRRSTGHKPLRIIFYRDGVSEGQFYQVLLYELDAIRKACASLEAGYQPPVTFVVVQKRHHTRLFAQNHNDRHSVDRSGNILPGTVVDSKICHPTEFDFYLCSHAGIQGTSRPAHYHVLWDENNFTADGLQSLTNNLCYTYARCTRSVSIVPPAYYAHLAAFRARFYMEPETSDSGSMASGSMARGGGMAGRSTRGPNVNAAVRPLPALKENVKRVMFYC

B1: RNA helicase RH12 (protein, UniProt Q9M2E0 1-498)
chain: MNTNRGRYPPGVGTGRGAPPNPDYHQSYRQQQPPQDQQYVQRGYSQNPQQMQLQQQHQQQQQQQQWSRRPQLPGNASNANEVVQQTTQPEASSDANGQDWKATLRLPPPDTRYQTADVTATKGNEFEDYFLKRDLLKGIYEKGFEKPSPIQEESIPIALTGSDILARAKNGTGKTGAFCIPVLEKIDPNNNVIQAMILVPTRELALQTSQVCKELSKYLNIQVMVTTGGTSLRDDIMRLHQPVHLLVGTPGRILDLTKKGVCVLKDCAMLVMDEADKLLSAEFQPSLEELIQFLPQNRQFLMFSATFPVTVKAFKDRHLRKPYVINLMDQLTLMGVTQYYAFVEERQKVHCLNTLFSKLQINQSIIFCNSVNRVELLAKKITELGYSCFYIHAKMVQDHRNRVFHEFRNGACRNLVCTDLFTRGIDIQAVNVVINFDFPRTSESYLHRVGRSGRFGHLGLAVNLVTYEDRFKMYQTEQELGTEIKPIPSNIDQAIYCQ
B2: Tudor Staphylococcal Nuclease TSN2 (protein, UniProt Q9FLT0 1-985)
chain: MATGAATENQWLKGRVKAVTSGDCLVITALTHNRAGPPPEKTITLSSLMAPKMARRGGIDEPFAWESREFLRKLCIGKEVAFKVDYKVEAIAGREFGSVYLGNENLAKLVVQNGWAKVRRPGQQNQDKVSPYIAELEQLEEQAQQEGFGRWSKVPGAAEASIRNLPPSAVGDSGNFDAMGLLAASKGKPMEGIVEQVRDGSTIRVYLLPEFQFVQVFVAGLQAPSMGRRQSTQEAVVDPDVTATSNGDASAETRGPLTTAQRLAASAASSVEVSSDPFAMEAKYFTELRVLNRDVRIVLEGVDKFNNLIGSVYYSDGDTVKDLGLELVENGLAKYVEWSANMLDEEAKKKLKATELQCKKNRVKMWANYVPPASNSKAIHDQNFTGKVVEVVSGDCLVVADDSIPFGSPMAERRVCLSSIRSPKMGNPRREEKPAPYAREAKEFLRQKLIGMEVIVQMEYSRKISPGDGVTTSGAGDRVMDFGSVFLPSPTKGDTAVAAAATPGANIAELIISRGLGTVVRHRDFEERSNHYDALLAAEARAIAGKKNIHSAKDSPALHIADLTVASAKKAKDFLPSLQRINQISAVVEYVLSGHRFKLYIPKESCSIAFAFSGVRCPGRGEPYSEEAIALMRRKIMQRDVEIVVENVDRTGTFLGSMWEKNSKTNAGTYLLEAGLAKMQTGFGADRIPEAHILEMAERSAKNQKLKIWENYVEGEEVVNGSSKVETRQKETLKVVVTEVLGGGRFYVQTVGDQKVASIQNQLAALSLKDAPIIGSFNPKKGDIVLAQFSLDNSWNRAMIVNGPRGAVQSPEEEFEVFYIDYGNQEIVPYSAIRPVDPSVSSAPGLAQLCRLAYIKVPGKEEDFGRDAGEYLHTVTLESGKEFRAVVEERDTSGGKVKGQGTGTELVVTLIAVDDEISVNAAMLQEGIARMEKRRRWEPKDKQAALDALEKFQDEARKSRTGIWEYGDIQSDDEDNVPVRKPGRG
B3: DCP5 (protein, UniProt Q9C658 1-611)
chain: MAADNTGSKSSSAADSYVGSLISLTSKSEIRYEGILYNINTDESSIGLQNVRSFGTEGRKKDGPQVPPSDKVYEYILFRGTDIKDLQVKASPPVQPPASTINNDPAIIQSHYPSPMPTSGSLPSTASGSLPDISSHNGQPGQHGMGFQNAMPLYQPGGNLGSWGASPQPPMYWQGFYTPPPNGLPQLHQQSLIRPPHGLPMPNSLQQPLQYPNFNTPPPPTGSSSLQGSSLPEAPSSLFPFSTSSQMLAPSSLPFPGLPPVTLSSSLQSTLQSAPSPSLASEMAPPLLSNKAPITAPPTLPQDTNLLSFSLSTTRATEASTGLPLSNKPSVVTGPISPPQTTPLTSAPVAGVSSSISQDKPKPLLVTPGQLLQSGSSAVSLSPPSTNADKDVEVVQVSSSAGLEQSVPVTSEAQPPILPLPSSARPTQKPNGHSFPNHNGYRGRGRGRGRGAGRSHQVMKFTEDFDFTAMNEKFNKDEVWGHLGKSTTLDGDEDDDSPTVDEAELPKIEAKPVYNKDDFFDSLSSNTIDRESQNSRPRFSEQRKLDTETFGEFSRFRGGRGGRGGYGRNNGYSRGGYGGRGYGGYGGRGGGGGGYGYGGRGQGRGVSNRTT
B4: PAB8 (protein, UniProt Q9FXA2 1-671)
chain: MAQIQHQGQNANGGVAVPGAAAAEAAAAAAGAAAAAAGAAQQGTTSLYVGDLDATVTDSQLFEAFTQAGQVVSVRVCRDMTTRRSLGYGYVNYATPQDASRALNELNFMALNGRAIRVMYSVRDPSLRKSGVGNIFIKNLDKSIDHKALHETFSAFGPILSCKVAVDPSGQSKGYGFVQYDTDEAAQGAIDKLNGMLLNDKQVYVGPFVHKLQRDPSGEKVKFTNVYVKNLSESLSDEELNKVFGEFGVTTSCVIMRDGEGKSKGFGFVNFENSDDAARAVDALNGKTFDDKEWFVGKAQKKSERETELKQKFEQSLKEAADKSQGSNLYVKNLDESVTDDKLREHFAPFGTITSCKVMRDPSGVSRGSGFVAFSTPEEATRAITEMNGKMIVTKPLYVALAQRKEDRKARLQAQFSQMRPVNMPPAVGPRMQMYPPGGPPMGQQLFYGQGPPAMIPQPGFGYQQQLVPGMRPGGSPMPNFFMPMMQQGQQQQQQQQQQQRPGGGRRGALPQPQQPSPMMQQQMHPRGRMYRYPQRDVNTMPGPTQNMLSVPYDVSSGGGVHHRDSPTSQPVPIVALATRLANAAPEQQRTMLGENLYPLVEQLEPESAAKVTGMLLEMDQTEVLHLLESPEALKAKVTEAMDVLRSVAQQQAGGAADQLASLSLGDNIVP
B5: VARICOSE (protein, UniProt Q9LTT8 1-1344)
chain: MASSPGNTNPHNTPPFDLGILFKPSSNPYPPPAASYPPPTGPFLHNQYDQQHYAPPGISAQPSPVTQQQQDVSSSSAATNLHPQRTLSYPTPPLNLQSPRSNHNPGTHILALLNNTNNGAPVANQEPSHQLPVVNHNEIARSFPGGSGPIRVPSCKLPKGRRLIGEHAVYDVDVRLQGEIQPQLEVTPITKYGSDPQLVVGRQIAVNKVYICYGLKGGNIRVLNINTALRSLFRGHSQRVTDMAFFAEDVDMLASVSLDGKVFVWKISEGSEGEDQPQITGKIVLALQILGEEDTKHPRVCWHCHKQEILVVSIGKHVLRIDTTKVGRGEVFSAEAPLQCPLDKLIDGVQIVGKHDGEVTDLSMCQWMTTRLVSSSVDGTIKIWQDRKAQPLVVLRPHDGHPVSSATFVTSPERPDHIILITGGPLNREMKIWVSAGEEGWLLPADAESWRCTQTLDLKSSTEPRAEEAFFNQVIALSEAGLLLLANAKRNALYAVHLDYGSSPVGTRMDYLSEFTVTMPILSFIGTNDPPEEPIVKVYCVQTLAIQQYTLDLCLCLPPPIENMGLEKSDSSVSREANLVEGMSEPSGLKPTDLPSVDSVPKPSIIVNRSESANKLSFPSAEATSQAIVPPNGEPKTSGLPSQTSGAGSAYATLPQLPLSPRLSSKLSGYHTPVEAIEPVIPHHELGGKTPSADYSVDRQMDAVGERNLDVSSVEEISRSKDSNVTPDDDVSGMRSPSAFFKHPTHLVTPSEILMGVSSAEASITTEDRRDRDANIQDVNNDPRDTEVEVKEISEARSTQNGEINDHDETENCTSENREKVFCSQVSNLSTEMARDCYPSTEGTFIPGESKAYGQPIKAGDESGVDSRGGPAKLLKGKKQKAKNSQGPGLSSTSSNVANLADSFNEQSQSLSHPMTDLLPQLLAMQETMNQVMASQKEMQRQLSNAATGPIGKESKRLEVALGRMIEKSSKSNADALWARIQEETVKNEKALRDHAQQIVNATTNFMSKELNAMFEKTIKKELAAIGPALARSVVPVIEKTVSSAITESFQRGIGDKAVNQLDKSVNIKLEATVARQIQAQFQTSGKQALQEGLRSSVESSVIPSFEKACKAMFDQIDSAFQKGIAEHTNAAQQRFDSGHSQLAHTLKESITSASSVAQALSRELAETQRNLLALAAAGANSGGSNSLVTQLSGGPLGALLEKVEAPMDPTTELSRLISERKYEESFTSALQRSDVSIVSWLCSQVDLRGLLAMNPLPLSQGVLLSLLQQLACDISKDTSRKLAWMTDVVAAINPSDQMIAVHARPIFEQVYQILHHHRNAPGSDVSAIRLIMHVINSMLMGCK
B6: LARP1a (protein, UniProt Q940X9 1-826)
chain: MMAETEGSVADDRELITREGGIGTKSPWKTTTSPVETIDAPVMGAHSWPALADAAQQPRPKNPPAPAPAPPSKNIPTSIPIPTPAVTGQAKSKGGGKANPGHKNPSGRHSKPGPRSNQNGPPPPPYLVHAVPYHPPPFPPMVPLPHAAGPDFPYAPYPPYPVPVPPVTESGNEKQVQASPLPPVLPAPQGDPGKPWPHQRGFDPRNMPQGAGPRNFGRPPFMGPAPGFLVGPGPGFPGPVYYLPGPPPGAIRGPYPPRFAPYPVNQGPPILSPEKLDLRDRVLKQVEYYFSDENLENDHYLISLMDEEGWVPTKIIAGFKRVKAMTMDVDFIVYALGFSNSVEVQGDQIRKRDKWSDWIPASKKSTSAETIGDGDKDSPKSITSGDNFGNPSKGSSKPTVSDFSSEGAQSSRTNNYKSGNLKSSADEKRNVEDLSNDFSNTFLLDEELDLEHRSPRKSGLSMSKSIEYEDDDMAVDDQDIQKLVIVTQNSGKSDGAGIGGTEAKNIPKELASTINDGLYYFEQELKKKRSGRRKNNSHLDTKDGKIKSGEGLNTKLGENSAANDGGEEHGIITSRRKQNKGTHKHHTAHARRFFSSNIRNNGNISESPPSSSIGFFFGSTPPDSHGPRLSKLSSSPQCTLSGSSPPVGSLPKSFPPFQHPSHQLLEENGFKQEKYLKYRKRCLNERKKLGSGCSEEMNHLYRFWSYFLRDTFVLSMYDDFQKFALEDAAGNYDYGLECLFRFYSYGLEKHFDEDLYKDFEKLSLDFYHKGNLYGLEKYWAFHHYRGKEEPITKHPELEKLLKEEFRSIDDFRAKETITNQKENKSH

The assay deals with T1, GFP-AGO1 (ARGONAUTE1 fused to GFP, line pAGO1:GFP-AGO1 ago1-27) (Arabidopsis thaliana). Nature of the assay: affinity purification with mass spectrometry.
In the case of B1, the binding result was “binds”.

As to B2, the binding result is “binds”.

For B3, the binding result is given as “binds”.

For the molecule B4, the binding result is on record as “binds”.

Consider B5, for which the binding entry is “binds”.

With B6, the binding result was “binds”.

The record behind these values is paper doi:10.1101/2023.10.12.562039.
